Data: paper PMC6395706
No constants are given. Whether binding was seen depends on the method and setting. In cells and extracts the contact can be indirect. A yes stands for co-enrichment or nearness to the bait. Other partners may have been found. For some assays here: A no says only that the protein was not detected with the bait.

B1: Farsa (protein, UniProt Q8C0C7 1-508)
chain: MADNPVLELLLRRLEVADGGLDSAELATQLGVEHQAVVGAVKSLQALGEVIEAELRSTKCWELTTEGEEIAREGSHEARVFRSIPLEGLVQSELMHLPSGKVGFSKAMSNKWIRVDKSAADGPRVFRVVDSIEDEVQKRLQLVQAGQAEKLAEKERNELRKRKLLTEVILKTYWVSKGKAFSTSVSKQEAELSPEMISSGSWRDRPFKPYNFSARGVLPDSGHLHPLLKVRSQFRQIFLEMGFTEMPTDNFIESSFWNFDALFQPQQHPARDQHDTFFLRDPAEALQLPMGYVQRVKRTHSQGGYGSQGYKYTWKLEEARKNLLRTHTTAASARALYQLAQKKPFTPAKYFSIDRVFRNETLDATHLAEFHQIEGVIADHGLTLGHLMGVLREFFTKLGITQLRFKPAYNPYTEPSMEVFSYHQGLKKWVEVGNSGVFRPEMLLPMGLPENVSVIAWGLSLERPTMIKYGINNIRELVGHKVNLQMVYDSPVCRLDIEPRSSKTQEAA
B2: Maz (protein, UniProt P56671 1-477)
chain: MFPVFPCTLLAPPFPVLGLDSRGVGGLMNSFPPPQGHAQNPLQVGAELQSRFFASQGCAQSPFQAAPAPPPTPQAPAAEPLQVDLLPVLAAAQESAAAAAAAAAAAAAVVTAPPAPAAASTVDTAALKQPPAPPPPPPAVSAPAAEAAPPAAAATIAAAAATAVVAPTSTVAVAPVASVLEKKTKSKGPYICALCAKEFKNGYNLRRHEAIHTGAKAGRVPSGAMKMPTMVPLSLLSVPQLSGASGGGGEAGAGGGTTAVAAGGVVTTTASGKRIRKNHACEMCGKAFRDVYHLNRHKLSHSDEKPYQCPVCQQRFKRKDRMSYHVRSHDGAVHKPYNCSHCGKSFSRPDHLNSHVRQVHSTERPFKCEKCEAAFATKDRLRAHTVRHEEKVPCHVCGKMLSSAYISDHMKVHSQGPHHVCELCNKGTGEVCPMAAAAAAAAAAAAAVVAAPPTAVGSLSGAEGVPVSSQPLPSQPW
B3: Hnrnph2 (protein, UniProt P70333 1-449)
chain: MMLSTEGREGFVVKVRGLPWSCSAEEVMRFFSDCKIQNGTSGVRFIYTREGRPSGEAFVELESEDEVKLALKKDRETMGHRYVEVFKSNSVEMDWVLKHTGPNSPDTANDGFVRLRGLPFGCSKEEIVQFFSGLEIVPNGMTLPVDFQGRSTGEAFVQFASQEIAEKALKKHKERIGHRYIEIFKSSRAEVRTHYDPPRKLMTMQRPGPYDRPGAGRGYNSIGRGAGFERMRRGAYGGGYGGYDDYGGYNDGYGFGSDRFGRDLNYCFSGMSDHRYGDGGSSFQSTTGHCVHMRGLPYRATENDIYNFFSPLNPMRVHIEIGPDGRVTGEADVEFATHEDAVAAMAKDKANMQHRYVELFLNSTAGTSGGAYDHSYVELFLNSTAGASGGAYGSQMMGGMGLSNQSSYGGPASQQLSGGYGGGYGGQSSMSGYDQVLQENSSDYQSNLA

Tests used:
PTEN-L:EGFP (human) [1] = molecular target: PTEN-L:EGFP (human) (UniProt P60484); assay: condition: only PBS-treated neurons, without glutamate; affinity purification with mass spectrometry; GFP-Trap_M pull-down of EGFP-tagged PTEN variants from the purified cytosolic fraction of replaced primary neurons treated with PBS for 60 min; 1 h at 4 °C; washes in TBS with 0.05% NP-40; interaction defined by significant enrichment against an EGFP control; n = 4
[2] = molecular target: PTEN:EGFP (not stated (the only PTEN cDNA named is the synthesised human PTEN-L)) (UniProt P60484); assay: affinity purification with mass spectrometry; GFP-Trap_M pull-down of EGFP-tagged PTEN variants from the purified cytosolic fraction of replaced primary neurons treated with 50 µM glutamate for 60 min; 1 h at 4 °C; washes in TBS with 0.05% NP-40; interaction defined by significant enrichment against an EGFP control; n = 4
PTEN-L:EGFP (human) [3] = molecular target: PTEN-L:EGFP (human) (UniProt P60484); assay: as above
[4] = molecular target: PTEN:EGFP (not stated (the only PTEN cDNA named is the synthesised human PTEN-L)) (UniProt P60484); assay: affinity purification with mass spectrometry; GFP-Trap_M pull-down of EGFP-tagged PTEN variants from the nuclear fraction of replaced primary neurons treated with 50 µM glutamate for 60 min; 1 h at 4 °C; washes in TBS with 0.05% NP-40; interaction defined by significant enrichment against an EGFP control; n = 4
PTEN-L:EGFP (human) [5] = molecular target: PTEN-L:EGFP (human) (UniProt P60484); assay: as above

Binder | binding (PTEN-L:EGFP (human) [1]) | binding [2] | binding (PTEN-L:EGFP (human) [3]) | binding [4] | binding (PTEN-L:EGFP (human) [5])
B1 | no binding | no binding | binds | – | –
B2 | – | – | – | no binding | binds
B3 | no binding | no binding | binds | – | –
